Results are given in words; binding and its absence hold for the method and conditions named. In cells and extracts the contact can be indirect. For some assays here: Binding calls can cover weak binding; strength is not graded here. Where a sequence is shown, tags or fusion partners need not be part of it.

This passage reports binding results from paper PMC9562184.

The target of one experiment is Flag–HDAC1-N domain. The experiment in a line: co-IP; exogenous: HEK293T cells co-transfected with tagged plasmids; lysates incubated with tag antibodies (anti-HA, anti-Myc, anti-Flag) and protein G-Sepharose overnight at 4 °C, washed four times with lysis buffer (50 mM Tris–Cl, 150 mM NaCl, 1% NP40, 0.5% sodium deoxycholate, 1% SDS, pH 8.0), Western blot; in some panels cells with stable Myc–CREPT or CREPT KO, Flag–HDAC1 or siHDAC1, or with Wnt3a for 20 h. (In general: Immunoblotting shows a protein as a band on a membrane.)

Another experiment deals with Flag–HDAC1-C domain. The description is as above.

B1: Myc–CREPT (cell cycle-related and expression-elevated protein in tumor) (protein, UniProt Q9NQG5 1-326)
chain: MSSFSESALEKKLSELSNSQQSVQTLSLWLIHHRKHAGPIVSVWHRELRKAKSNRKLTFLYLANDVIQNSKRKGPEFTREFESVLVDAFSHVAREADEGCKKPLERLLNIWQERSVYGGEFIQQLKLSMEDSKSPPPKATEEKKSLKRTFQQIQEEEDDDYPGSYSPQDPSAGPLLTEELIKALQDLENAASGDATVRQKIASLPQEVQDVSLLEKITDKEAAERLSKTVDEACLLLAEYNGRLAAELEDRRQLARMLVEYTQNQKDVLSEKEKKLEEYKQKLARVTQVRKELKSHIQSLPDLSLLPNVTGGLAPLPSAGDLFSTD
As to B1, the values for the binding result in the experiment with Flag–HDAC1-N domain and with Flag–HDAC1-C domain were “binds” and “no binding”, respectively.
